Measured values published in paper PMC3983199.
These are yes or no findings as the source states them, for the method shown. Some results given as binding are weak or reduced against the parent protein; the word gives no strength.

By UniProt entry, the sequences of proteins in these tests, tags left out. Residues count along the entry.
GST-HDAC1 1-117 (Q13547, residues 1-117): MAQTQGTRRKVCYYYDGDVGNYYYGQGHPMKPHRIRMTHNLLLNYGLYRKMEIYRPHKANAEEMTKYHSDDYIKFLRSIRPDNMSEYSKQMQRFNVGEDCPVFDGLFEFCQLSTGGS
GST-HDAC1 375-482 (Q13547, residues 375-482): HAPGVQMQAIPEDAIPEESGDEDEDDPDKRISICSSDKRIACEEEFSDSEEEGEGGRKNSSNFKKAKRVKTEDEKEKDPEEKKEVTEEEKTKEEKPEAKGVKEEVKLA
UniProt Q09472: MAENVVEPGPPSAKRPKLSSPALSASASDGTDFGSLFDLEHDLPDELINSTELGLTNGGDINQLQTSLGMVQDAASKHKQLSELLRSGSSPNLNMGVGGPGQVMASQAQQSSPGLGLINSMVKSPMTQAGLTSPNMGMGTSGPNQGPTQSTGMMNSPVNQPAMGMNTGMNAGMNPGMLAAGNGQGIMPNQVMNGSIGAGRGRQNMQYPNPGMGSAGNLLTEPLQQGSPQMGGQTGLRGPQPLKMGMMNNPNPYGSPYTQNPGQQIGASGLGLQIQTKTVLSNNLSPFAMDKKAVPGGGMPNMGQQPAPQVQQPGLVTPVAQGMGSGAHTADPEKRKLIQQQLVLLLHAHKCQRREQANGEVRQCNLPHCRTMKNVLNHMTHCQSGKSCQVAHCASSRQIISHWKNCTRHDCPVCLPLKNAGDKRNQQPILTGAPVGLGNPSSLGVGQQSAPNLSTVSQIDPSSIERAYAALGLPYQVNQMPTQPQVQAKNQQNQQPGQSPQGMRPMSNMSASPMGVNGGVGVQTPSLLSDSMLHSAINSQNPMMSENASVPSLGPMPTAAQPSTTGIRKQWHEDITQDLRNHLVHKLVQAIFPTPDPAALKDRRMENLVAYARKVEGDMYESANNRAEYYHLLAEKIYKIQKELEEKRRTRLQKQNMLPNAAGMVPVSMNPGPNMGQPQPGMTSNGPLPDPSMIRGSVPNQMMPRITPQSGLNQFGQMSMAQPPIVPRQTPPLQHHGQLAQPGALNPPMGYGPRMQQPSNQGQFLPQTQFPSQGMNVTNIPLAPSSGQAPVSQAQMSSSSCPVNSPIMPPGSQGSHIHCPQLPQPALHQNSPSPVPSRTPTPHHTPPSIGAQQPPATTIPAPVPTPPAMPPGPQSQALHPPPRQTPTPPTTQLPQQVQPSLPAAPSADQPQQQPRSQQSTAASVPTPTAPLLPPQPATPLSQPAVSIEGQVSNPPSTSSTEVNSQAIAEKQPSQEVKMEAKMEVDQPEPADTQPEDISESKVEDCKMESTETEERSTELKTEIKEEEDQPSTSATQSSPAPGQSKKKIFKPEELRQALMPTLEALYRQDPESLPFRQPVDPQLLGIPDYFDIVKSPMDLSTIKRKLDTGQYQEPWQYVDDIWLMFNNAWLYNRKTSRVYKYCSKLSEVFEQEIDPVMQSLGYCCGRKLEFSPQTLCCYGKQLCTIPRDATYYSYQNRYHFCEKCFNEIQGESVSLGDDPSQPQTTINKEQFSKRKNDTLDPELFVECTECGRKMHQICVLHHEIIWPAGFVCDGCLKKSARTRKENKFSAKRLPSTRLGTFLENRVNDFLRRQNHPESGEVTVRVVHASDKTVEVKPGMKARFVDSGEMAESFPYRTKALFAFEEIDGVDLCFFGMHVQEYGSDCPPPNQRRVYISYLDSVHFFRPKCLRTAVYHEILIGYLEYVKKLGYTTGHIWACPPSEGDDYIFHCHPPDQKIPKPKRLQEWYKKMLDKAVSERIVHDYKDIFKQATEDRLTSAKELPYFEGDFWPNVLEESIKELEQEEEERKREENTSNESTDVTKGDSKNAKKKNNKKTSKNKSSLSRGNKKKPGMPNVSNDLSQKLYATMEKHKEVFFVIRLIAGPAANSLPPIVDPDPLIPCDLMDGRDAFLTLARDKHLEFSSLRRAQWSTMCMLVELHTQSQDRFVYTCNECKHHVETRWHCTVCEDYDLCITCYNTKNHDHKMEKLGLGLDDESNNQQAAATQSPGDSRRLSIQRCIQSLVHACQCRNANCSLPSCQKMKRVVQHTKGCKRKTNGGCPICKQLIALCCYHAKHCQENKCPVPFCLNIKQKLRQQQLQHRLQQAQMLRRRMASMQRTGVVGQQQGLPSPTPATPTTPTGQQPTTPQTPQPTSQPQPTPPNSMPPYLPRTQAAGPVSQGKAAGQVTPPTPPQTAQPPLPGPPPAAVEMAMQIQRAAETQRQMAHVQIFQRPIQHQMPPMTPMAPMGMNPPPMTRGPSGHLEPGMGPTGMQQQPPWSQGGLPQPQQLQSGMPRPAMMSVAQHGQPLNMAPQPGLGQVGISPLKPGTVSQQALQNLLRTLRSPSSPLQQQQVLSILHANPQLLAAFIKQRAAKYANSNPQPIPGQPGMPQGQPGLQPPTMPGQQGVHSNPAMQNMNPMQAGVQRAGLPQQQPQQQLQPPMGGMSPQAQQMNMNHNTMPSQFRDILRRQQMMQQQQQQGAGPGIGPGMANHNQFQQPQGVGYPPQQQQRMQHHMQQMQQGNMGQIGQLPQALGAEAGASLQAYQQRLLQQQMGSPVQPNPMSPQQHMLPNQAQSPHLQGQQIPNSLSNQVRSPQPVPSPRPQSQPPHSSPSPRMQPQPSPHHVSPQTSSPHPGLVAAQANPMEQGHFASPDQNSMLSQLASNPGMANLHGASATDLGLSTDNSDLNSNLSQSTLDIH

Assays:
GST-HDAC1 1-117 = GST-HDAC1 1-117 (UniProt Q13547); assay: pull-down; 300 ng GST-tagged protein immobilised on glutathione-sepharose 4B; 100 ng purified Flag-tagged protein in 150 uL (150 mM NaCl, 50 mM Tris-HCl pH 8.0, 2 mM EDTA, 0.1% Nonidet P40), 30 min, room temperature; anti-Flag Western blot; for HDAC1 on GST-H3 also with 100 nM or 300 nM TSA; both purified
GST-HDAC1 375-482 = GST-HDAC1 375-482 (UniProt Q13547); assay: as above

- binding (GST-HDAC1 1-117): binds
- binding (GST-HDAC1 375-482): binds
Substance: Flag-tagged p300 (from UniProt Q09472 1-2414) (enzyme)
